Amino acid sequences for entries named in this document (tags omitted). A change or cut given only in a name is not applied to a line headed by its entry.
UniProt P08482: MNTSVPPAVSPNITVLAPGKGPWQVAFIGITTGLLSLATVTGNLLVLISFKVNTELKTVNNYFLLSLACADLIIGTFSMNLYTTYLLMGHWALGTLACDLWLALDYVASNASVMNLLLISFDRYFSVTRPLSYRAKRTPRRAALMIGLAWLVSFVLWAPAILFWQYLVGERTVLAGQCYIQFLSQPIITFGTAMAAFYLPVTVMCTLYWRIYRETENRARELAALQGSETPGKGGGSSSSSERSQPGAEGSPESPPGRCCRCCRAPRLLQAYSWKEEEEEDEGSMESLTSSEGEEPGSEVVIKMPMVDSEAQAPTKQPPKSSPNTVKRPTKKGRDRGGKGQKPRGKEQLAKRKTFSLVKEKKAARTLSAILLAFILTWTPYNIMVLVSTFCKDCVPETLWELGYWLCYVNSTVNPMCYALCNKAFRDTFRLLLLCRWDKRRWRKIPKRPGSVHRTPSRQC

In all, about 1,700 compounds went through this assay and about 310 (18%) were called active. The inconclusive results got no clear call from the source; some entries with a clear call stand among them for comparison.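 How the source made its calls: active means fluorescence change differs from the solvent-only DMSO control mean at a set confidence level in both duplicate runs; inconclusive means differs from solvent-only control mean in just one of two runs; inactive means the rest.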
Each compound was assayed against Muscarinic acetylcholine receptor M1 (Rattus norvegicus) (UniProt P08482) (assay: rat M1 muscarinic receptor agonists, confirmation, CHO-M1 cells, Fluo-4 calcium, duplicate retest (AID 1488;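 further: an EC20 dose of acetylcholine follows compound addition during the same imaging run; raw fluorescence intensity difference in instrument units with no normalization to controls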)). Details: Fluo-4 calcium fluorescence, agonist mode, at 10 µM, actives lie on both sides.
In the case of CCCn1c(SCCc2ccccc2)nc2c1c(=O)[nH]c(=O)n2C, the fluorescence change (max-min) is reported as inconclusive: -17.3. For CCN=C1SC(C(=O)NCCc2ccccc2)CC(=O)N1CC (stereo not drawn), the fluorescence change (max-min) was inconclusive: -14.2. With Clc1ccc(-n2nnnc2-c2ccccc2)cc1 the fluorescence change (max-min) was active: -25.7. CN(Cc1cccs1)c1ncnc2sccc12 was tested, and the fluorescence change (max-min) was inactive: -3.38. With c1ccc(-c2nnc(SCc3cn4ccsc4n3)o2)cc1 the fluorescence change (max-min) was inactive: -13.1. With O=[n+]1c2c(n([O-])c3cc(F)c(N4CCCC4)cc31)CCC2 the fluorescence change (max-min) was active: 632. c1ccc(-c2nc(-n3ccnc3)nc(-n3ccnc3)n2)cc1 was tested, and the fluorescence change (max-min) was inactive: -0.704. CCOC(=O)C1CCCN(C(=O)CCCn2nc(C)n3c(cc4sccc43)c2=O)C1 (stereo not drawn) was tested, and the fluorescence change (max-min) was active: 335. For Cc1ccc(-c2nc3cc(N)ccc3o2)cc1, the fluorescence change (max-min) was inactive: -10.5. In the case of O=C(NCCc1ccc(Cl)cc1)c1cnc2n(c1=O)CCS2, the fluorescence change (max-min) is reported as inconclusive: -19.4. CCn1nc(NC(=O)c2cccnc2)c2cc3ccccc3nc21 was tested, and the fluorescence change (max-min) was active: -29.9. For CC(=O)NCCc1ccc(S(=O)(=O)N2CCOCC2)cc1, the fluorescence change (max-min) was inactive: -2.97. COC(=O)c1ccc2c(=O)n(CCCCCC(=O)N3CCN(c4ccccc4)CC3)c(=O)[nH]c2c1 was tested, and the fluorescence change (max-min) was inactive: -5.21. For COc1ccc(C2C3=C(CC(C)(C)CC3=O)Nc3c2c(=O)[nH]c(=O)n3Cc2ccccc2)cc1OC (stereo not drawn), the fluorescence change (max-min) was inactive: 28.4. For COc1ccc(S(=O)(=O)N(Cc2ccccc2)Cc2nc(-c3ccccc3)no2)cc1, the fluorescence change (max-min) was inactive: 5.4. For Oc1ccc2oc3c(c2c1/C=N/n1cnnc1)CCCC3, the fluorescence change (max-min) was inconclusive: -22.9. For c1ccc(-n2nnnc2SCCCSc2nc3ccccc3s2)cc1, the fluorescence change (max-min) was inactive: 26.4. With CC(=O)Nc1ccc(NC2=CC(=O)CC(C)(C)C2)cc1 the fluorescence change (max-min) was inconclusive: -27.2. In the case of O=C(O)c1ccccc1C1=Nc2ccc(O)cc2Oc2cc(O)ccc21, the fluorescence change (max-min) is reported as active: 418. In the case of CCn1c(SCC(=O)Nc2nc3ccccc3s2)nc2c(c1=O)SC(C)C2 (stereo not drawn), the fluorescence change (max-min) is reported as inconclusive: -31.4. In the case of O=S(=O)(c1ccc(Oc2ncnc3scc(-c4ccccc4)c23)cc1)N1CCOCC1, the fluorescence change (max-min) is reported as inconclusive: -26. With COc1ccc(S(=O)(=O)Cc2ccc(C(=O)N3CCN(c4cccc(C)c4)C(C)C3)o2)cc1 (stereo not drawn) the fluorescence change (max-min) was inconclusive: -11.7. For CCC(C)c1ccc(O)c(NC(=O)c2ncn[nH]2)c1 (stereo not drawn), the fluorescence change (max-min) was active: -24. In the case of Cc1cccc2cc3c(N)c(C(=O)N4CCOCC4)sc3nc12, the fluorescence change (max-min) is reported as inconclusive: 52.1. With O=C(NCCC1=CCCCC1)C1CCCN(c2nc3ccccc3o2)C1 (stereo not drawn) the fluorescence change (max-min) was inconclusive: -29.1. COc1ccc2c(c1OC)C(=O)N1c3ccccc3C(=O)N(c3ccccc3)C21 (stereo not drawn) was tested, and the fluorescence change (max-min) was inconclusive: -14.9. Cc1cc2cc(CCNC(=O)c3ccc(S(=O)(=O)N4CCOCC4)cc3)c(=O)[nH]c2cc1C was tested, and the fluorescence change (max-min) was inconclusive: -25.6. In the case of CCN=C1SC(CC(=O)Nc2ccc(C(F)(F)F)cc2)C(=O)N1CC (stereo not drawn), the fluorescence change (max-min) is reported as inconclusive: -24.4. CCOc1ccc(-c2noc(COC)n2)cc1OC was tested, and the fluorescence change (max-min) was inactive: -3.5. In the case of COc1ccccc1OCC(=O)c1[nH]c(C)c(C(C)=O)c1C, the fluorescence change (max-min) is reported as inactive: 4.47. CCNc1c2c3c(cccc3n(C)c1=O)C(=O)c1ccccc1-2 was tested, and the fluorescence change (max-min) was active: 3230. N#Cc1cccc(NC(=O)Nc2cccs2)c1 was tested, and the fluorescence change (max-min) was inactive: 38.5. In the case of Cc1c(C(=O)OCCOC(C)C)[nH]c2c1C(=O)CC(c1ccco1)C2 (stereo not drawn), the fluorescence change (max-min) is reported as inconclusive: -17.6. With CCOc1ccccc1N1CCN(c2nc3ccccc3nc2C(C#N)C(=O)OC)CC1 (stereo not drawn) the fluorescence change (max-min) was inconclusive: -20.9. COc1ccc(NC(=O)c2ccccc2NC(=O)c2ccco2)c(OC)c1 was tested, and the fluorescence change (max-min) was inconclusive: -34.8. For CC(C)c1nnc(NC(=O)c2ccc(S(=O)(=O)N3CCOCC3)cc2)s1, the fluorescence change (max-min) was inconclusive: -21.5. For Cc1ccc(S(=O)(=O)c2cc3c(=O)n4ccccc4nc3n(C)c2=N)cc1, the fluorescence change (max-min) was inactive: -11.4. O=C(CSc1n[nH]c(=O)n1C1CC1)Nc1cc(Cl)ccc1Oc1ccccc1 was tested, and the fluorescence change (max-min) was inactive: -13.5. In the case of CCc1nc(C)cn1S(=O)(=O)c1cc(C)c(OC)cc1C, the fluorescence change (max-min) is reported as inconclusive: -17.1. For Nc1nc2n(n1)C(c1ccco1)CC(c1ccc(F)cc1)N2 (stereo not drawn), the fluorescence change (max-min) was inconclusive: -18.4. In the case of COc1ccc(CN2C(=O)c3cccnc3C2Nc2cc(Cl)ccc2OC)cc1 (stereo not drawn), the fluorescence change (max-min) is reported as inactive: -4.75. In the case of Clc1ccc(CCNc2ncnc3nc[nH]c23)cc1, the fluorescence change (max-min) is reported as inconclusive: -14.4. In the case of Cc1nnc(SC(C)C(=O)Nc2ccc(S(=O)(=O)N3CCCCCC3)cc2)s1 (stereo not drawn), the fluorescence change (max-min) is reported as inconclusive: -17.5. With CC1CN(S(=O)(=O)c2ccc(NC(=O)c3ccco3)cc2)CC(C)O1 (stereo not drawn) the fluorescence change (max-min) was inactive: -12.2. With O=C1COc2ccc(C(=O)CSc3nnc(Cc4cccs4)n3-c3ccccc3)cc2N1 the fluorescence change (max-min) was inactive: 5.31. In the case of COc1ccccc1-n1nc(C(=O)O)c2ccccc2c1=O, the fluorescence change (max-min) is reported as inconclusive: 35.2. With O=C(c1cn(-c2ccccc2)nc1-c1ccc(Cl)s1)N1CCOCC1 the fluorescence change (max-min) was inactive: -26.6. For CC1CN(c2nc3ccccc3nc2C(C#N)C(=O)OC2CCCCC2)CC(C)O1 (stereo not drawn), the fluorescence change (max-min) was inconclusive: -11.6. For O=c1oc2c3c4c(cc2c(C(F)(F)F)c1CCN1CCOCC1)CCCN4CCC3, the fluorescence change (max-min) was active: 1520. For CCCN1Cc2cccc(C(=O)N3CCN(c4cc(Cl)ccc4C)CC3)c2C1=O, the fluorescence change (max-min) was inconclusive: -20.7. In the case of COc1cc(OC)cc(-c2nnc(SCc3c(F)cccc3Cl)o2)c1, the fluorescence change (max-min) is reported as inconclusive: -16.2. In the case of Cc1nn(-c2ccccc2)c(C)c1C(=O)OC/C(O)=C(\C#N)c1nc2ccccc2[nH]1, the fluorescence change (max-min) is reported as active: -20.5. In the case of COc1ccc(Cl)cc1CN1CCN(c2nc(C)cc(C)c2C#N)CC1, the fluorescence change (max-min) is reported as inactive: 20.8. In the case of Cc1ccc(-c2csc3nnc(SCC(=O)Nc4cccc(C)n4)n23)cc1, the fluorescence change (max-min) is reported as inconclusive: -14.3. In the case of CCCOc1ccccc1C1CC(=O)Nc2cc3c(cc21)OCO3 (stereo not drawn), the fluorescence change (max-min) is reported as inconclusive: -24.2. In the case of Cc1cccc(N2CCN(C(=O)C3CCN(S(=O)(=O)c4cccc5cccnc45)CC3)CC2C)c1 (stereo not drawn), the fluorescence change (max-min) is reported as inactive: -11.6. In the case of O=C(CSc1nnc(Cn2nnc3ccccc32)o1)N(Cc1ccc(F)cc1)c1ccccc1, the fluorescence change (max-min) is reported as active: -33.9. COc1cc(-c2nnc3n2N=C(c2ccccc2)CS3)cc(OC)c1OC was tested, and the fluorescence change (max-min) was inconclusive: -23.7.
